# Not every detail of the peptide structures is certain; ends, links or a residue may be inferred.
# Legend:
# VZV-BAC-Luc strain = test: VZV replication in HFFs by luciferase assay; type: cell-based, Varicella-Zoster Virus; conditions: 0.25 μM, lowest concentration tested, 24 h
# Brown Norway rats, STZ = test: Diabetic retinopathy prevention study in STZ treated rat (IVT); type: in vivo
# Excerpt: The objective of this study was to determine the ability of XG-102 to prevent diabetic retinopathy when administered by intravitreal injections to streptozotocin (STZ)-treated (hyperglycemic) rats.
# Sterile vials containing 0.0412 g of inducing agent (STZ) were pre-weighed, sealed and transferred to the dosing room for administration to Groups 2 to 4 animals and Spares on Day −7. A duplicate set of empty, appropriately labeled sterile vials were provided. The reconstituted STZ solution was filtered into these vials for dosing. The Reference Item, 0.9% NaCl, was administered as received. XG-102 was prepared using the correction factor 1.383. A stock solution equal to the highest dose level was prepared in vehicle, 0.9% Sodium Chloride for Injection, and sterile filtered through a 0.22 μm polyvinylidene difluoride (PVDF) filter. The lower dose levels were prepared by directly diluting the stock solution. Dose formulations were prepared once at appropriate concentrations to meet dosage level requirements. All dilutions were prepared by directly diluting the stock solution with vehicle. Three dosing aliquots (Days 1, 8 and 15) were prepared and stored in a freezer set to maintain −20° C. Aliquot(s) of each dose level were thawed at ambient temperature on each day of dosing and the solution maintained at room temperature for no longer than 6 hours.
# 60 male Brown Norway rats were received from Charles River Labs, Inc., Portage, II. The animals were approximately 8 weeks old and weighed between 166 and 228 g. The Brown Norway rat was chosen as the animal model for this study as it is an accepted species for use in the STZ-induced diabetic retinopathy model. The total number of animals used in this study was considered to be the minimum required to properly characterize the effects of the Test Items. […] A minimum acclimation period of 20 days was allowed between animal receipt and the start of treatment in order to accustom the animals to the laboratory environment. Animals were assigned to groups by a stratified randomization scheme designed to achieve similar group mean body weights. Animals in poor health or at extremes of body weight range were not assigned to groups. Before the initiation of dosing, any assigned animals considered unsuitable for use in the study were replaced by alternate animals obtained from the same shipment and maintained under the same environmental conditions. The alternate animals were used as replacements on the study within 3 days of initiation. On arrival, animals were individually housed until randomization. Following randomization, animals were group housed (up to 3 animals of the same dosing group together) in stainless steel perforated floor cages equipped with an automatic watering valve. The room in which the animals were kept was documented in the study records. Animals were separated during designated procedures/activities. Temperatures of 19° C. to 25° C. with a relative humidity of 30% to 70% were maintained. A 12-hour light/12-hour dark cycle was maintained, except when interrupted for designated procedures. PMI Nutrition International Certified Rodent Chow No. 5CR4 (14% protein) was provided ad libitum throughout the study, except during designated procedures. Municipal tap water after treatment by reverse osmosis and ultraviolet irradiation was freely available to each animal via an automatic watering system (except during designated procedures). Animals were socially housed for psychological/environmental enrichment and were provided with items such as a hiding device and a chewing object, except when interrupted by study procedures/activities.
# For administration of Inducing Agent (Groups 2 to 4, Day −7), one vial of STZ per animal (including spares) was reconstituted within 3 minutes of injection with 1.5 mL of Sterile Water for Injection, USP, to provide a concentration of 27.5 mg/mL. The vial was inverted or swirled to dissolve STZ. […]
smiles,measurement,setting,value
CC(C)C[C@@H](NC(=O)[C@@H](Cc1ccccc1)NC(=O)[C@H]1CCCN1C(=O)[C@@H](CCC(N)=O)NC(=O)[C@H](NC(=O)[C@H]1CCCN1C(=O)[C@@H](CCCNC(=N)N)NC(=O)[C@@H](CO)NC(=O)[C@@H](CCC(N)=O)NC(=O)[C@H](N)CC(=O)O)C(C)C)C(=O)N[C@H](CC(N)=O)C(=O)N[C@H](CC(C)C)C(=O)N[C@@H](C(=O)N[C@@H](C(=O)N1CCC[C@@H]1C(=O)N[C@H](CCCNC(=N)N)C(=O)N[C@H](CCCCN)C(=O)N1CCC[C@@H]1C(=O)N[C@H](CCCNC(=N)N)C(=O)N1CCC[C@@H]1C(=O)N1CCC[C@@H]1C(=O)N[C@H](CCCNC(=N)N)C(=O)N[C@H](CCCNC(=N)N)C(=O)N[C@H](CCCNC(=N)N)C(=O)N[C@H](CCC(N)=O)C(=O)N[C@H](CCCNC(=N)N)C(=O)N[C@H](CCCNC(=N)N)C(=O)N[C@H](CCCCN)C(=O)N[C@H](CCCCN)C(=O)N[C@H](CCCNC(=N)N)C(=O)NCC(=O)O)[C@H](C)O)[C@H](C)O [XG-102],VZV replication (luciferase),VZV-BAC-Luc strain,prevented VZV replication at the lowest concentration tested
same,"Amplitude, Oscillatory Potential #1 Scotopic Single Flash 0 dB - B-Wave","Brown Norway rats, STZ; 0.2 μg/eye, Day 6",49 μV
same,"Amplitude, Oscillatory Potential #2 Scotopic Single Flash 0 dB - B-Wave","Brown Norway rats, STZ; 0.2 μg/eye, Day 6",98 μV
same,"Amplitude, Oscillatory Potential #1 Scotopic Single Flash 0 dB - B-Wave","Brown Norway rats, STZ; 0.2 μg/eye, Day 13",37 μV
same,"Amplitude, Oscillatory Potential #2 Scotopic Single Flash 0 dB - B-Wave","Brown Norway rats, STZ; 0.2 μg/eye, Day 13",63 μV
same,"Amplitude, Oscillatory Potential #1 Scotopic Single Flash 0 dB - B-Wave","Brown Norway rats, STZ; 0.2 μg/eye, Day 20",36 μV
same,"Amplitude, Oscillatory Potential #2 Scotopic Single Flash 0 dB - B-Wave","Brown Norway rats, STZ; 2 μg/eye, Day 6",93 μV
same,"Amplitude, Oscillatory Potential #1 Scotopic Single Flash 0 dB - B-Wave","Brown Norway rats, STZ; 2 μg/eye, Day 13",33 μV
same,"Amplitude, Oscillatory Potential #2 Scotopic Single Flash 0 dB - B-Wave","Brown Norway rats, STZ; 2 μg/eye, Day 13",92 μV
same,"Amplitude, Oscillatory Potential #1 Scotopic Single Flash 0 dB - B-Wave","Brown Norway rats, STZ; 2 μg/eye, Day 20",26 μV
same,"Amplitude, Oscillatory Potential #2 Scotopic Single Flash 0 dB - B-Wave","Brown Norway rats, STZ; 2 μg/eye, Day 20",49 μV
